Data: PubChem BioAssay AID504444 (National Center for Advancing Translational Sciences (NCATS), 2011)
The whole screen tested about 360,000 compounds, of which about 7,500 (2.1%) were called active. This list was built around the results that the source calls inconclusive (neither active nor inactive); the mix of calls is not that of the screen. Calls come from the whole dose curve; as a rule, active = well fitted inhibition curve with a large enough effect; inconclusive = small, poorly fitted or top-dose-only effect, or effect the other way; inactive = flat fitted curve, though single readings scatter. Potencies of inconclusive entries are doubtful fits and often do not repeat.

Assay: Nrf2 qHTS screen for inhibitors; note: nearly all actives have a fitted effect of over 60% in size
Settings: A549 ARE-Fluc reporter, luciferase luminescence, 18-24 h; series mostly up to 46 µM
How it was run: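 Quantitative HTS in A549 cells stably bearing an antioxidant response element-firefly luciferase construct. Inhibition of Nrf2-driven transcription was scored by luminescence after 18-24 h of compound exposure at 37 °C.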
Potency is the fitted concentration of half-maximal effect.

SMILES | Potency
COc1ccc(NC(=O)N2CCCC(c3nc(-c4ccc(OC)cc4)no3)C2)cc1 (centres undefined) | inconclusive: 29.1 µM [falling, single point]
COC(=O)Cc1c(C)c2ccc3c(c2oc1=O)CN(Cc1ccccc1OC)CO3 | inactive
CCc1ccc(N(C(=O)c2ccco2)C(C(=O)NC2CCCC2)c2ccncc2)cc1 (centres undefined) | inconclusive: 25.9 µM [activator, single point]
CC1=C/C(=N\N=C2\NC(=O)C(CC(=O)Nc3ccccc3F)S2)CC(C)(C)C1 (centres undefined) | inconclusive: 32.6 µM [falling, single point]
COc1ccc2ncc(S(=O)(=O)c3ccccc3)c(N3CCC4(CC3)OCCO4)c2c1 | inconclusive: 23.1 µM [falling, single point]
CCn1c(=N)n(CC(=O)c2cccc(OC)c2)c2ccccc21 | inconclusive: 9.2 µM [activator, partial curve]
COc1cc(NC(=O)c2ccc([N+](=O)[O-])o2)ccc1NC(=O)c1ccco1 | inactive
CCN(CC(=O)Nc1c(C(=O)OC)[nH]c2ccc(Cl)cc12)c1ccc2c(c1)OCO2 | inconclusive: 14.6 µM [falling, partial curve]
Cc1ccc2nc(NCc3ccccc3)c(C=NCc3ccccc3)c(=O)n2c1 | inconclusive: 29.1 µM [activator, single point]
Oc1ccc(/C=C/c2ccnc3ccccc23)cc1 | inconclusive: 29.1 µM [falling, single point]
CC1=C(c2ccc(C)c(C)c2)S(=O)(=O)N=C1N1CCC(C(=O)Nc2cccc(F)c2)CC1 | inactive
C=CCc1c(C)c(C#N)c2nc3ccccc3n2c1N1CCCCC1 | inconclusive: 4.61 µM [activator, full curve]
CCOc1ccc(S(=O)(=O)NCc2ccc(Cl)cc2)c2cccnc12 | inactive
COc1ccc(S(=O)(=O)N(Cc2cc3ccc(OC)cc3[nH]c2=O)CC2COCCO2)cc1 (centres undefined) | inconclusive: 16.4 µM [activator, partial curve, poor fit]
CCCCN(C)CCNC(=O)C1CCN(S(=O)(=O)c2cccc3nsnc23)CC1 | inactive
O=C(OCC(=O)N1CCc2ccccc21)c1ccccc1F | inconclusive: 18.4 µM [falling, partial curve, poor fit]
O=C(O)CCC(=O)Nc1ccc(C(=O)OCC(=O)c2ccc(Cl)cc2)cc1 | inconclusive: 29.1 µM [activator, partial curve, poor fit]
N#CCCSc1nc(N2CCOCC2)c2c(c1C#N)CCCC2 | inconclusive: 6.51 µM [activator, single point]
O=[N+]([O-])c1ccccc1S(=O)(=O)c1ccccc1 | inconclusive: 13 µM [falling, partial curve, poor fit]
CC(=O)N1CCC(O)(c2cccc(C(F)(F)F)c2)CC1 | inactive
CC(C)(C)OC(=O)N1CCC(NC(=O)c2[nH]cnc2C(=O)Nc2ccccc2)CC1 | inactive
CCOC(=O)c1cnc2ccc(C)cc2c1NCCc1ccc(OC)c(OC)c1 | inactive

Copied from the list:
In Potency, COC(=O)Cc1c(C)c2ccc3c(c2oc1=O)CN(Cc1ccccc1OC)CO3 reads inactive
In Potency, CCc1ccc(N(C(=O)c2ccco2)C(C(=O)NC2CCCC2)c2ccncc2)cc1 (centres undefined) reads inconclusive: 25.9 µM [activator, single point]
In Potency, CCOc1ccc(S(=O)(=O)NCc2ccc(Cl)cc2)c2cccnc12 reads inactive

Next part:

SMILES | Potency
CC(C)CC(NC(=O)c1ccco1)C(=O)Nc1ccc2c(c1)OCCO2 (centres undefined) | inconclusive: 1.84 µM [activator, partial curve]
CCCCCOC(=O)Nc1ccc(S(=O)(=O)Nc2cccc([N+](=O)[O-])c2)cc1 | inconclusive: 20.6 µM [falling, single point]
CC(Sc1nc(-c2ccccc2)cc(C(F)(F)F)n1)C(=O)N1CCCCC1 (centres undefined) | inconclusive: 29.1 µM [falling, partial curve, poor fit]
CC(C)(O)CC[C@@H](O)[C@](C)(O)[C@H]1CC[C@@]2(O)C3=CC(=O)[C@@H]4C[C@@H](O)[C@@H](O)C[C@]4(C)C3CC[C@]12C (some centres undefined) | inactive
O=C(Nc1ccc(CN2CCCCC2)cc1)Nc1ccc(Br)cc1Cl | inactive
COc1ccc(NC(=O)Cn2cc(C(=O)c3ccco3)c3ccccc32)cc1 | inconclusive: 23.1 µM [falling, single point]
O=C(CC1C(=O)N(c2ccccc2)C(=O)N1Cc1ccc2c(c1)OCO2)Nc1ccccc1 (centres undefined) | inactive
COc1ccc(-c2[nH]ncc2/C=C(\C#N)C(=O)NC2CC2)cc1 | inactive
Cc1ccc(C)c(NC(=O)CN(C)C(=O)[C@@H](NC(=O)c2ccc(C(C)(C)C)cc2)C(C)C)c1 | inconclusive: 20.6 µM [falling, single point]
Cc1ccc(-c2cc3c(n2-c2ccccc2F)CC(C)(C)CC3=O)cc1 | inactive
O=c1ccc(N=Nc2ccccc2)ccc1O | inconclusive: 23.1 µM [falling, partial curve, poor fit]
CCn1nc(NC(=O)c2ccccn2)c2cc3cccc(C)c3nc21 | inconclusive: 3.66 µM [activator, full curve, poor fit]
COCCN1CCN(C(=O)c2cc(COc3ccc(Cl)cc3OC)on2)CC1 | inconclusive: 6.51 µM [activator, partial curve]
COc1ccccc1OCC(=O)N/N=C1\CCc2ccccc21 | inactive
Cc1ccc(/C=C/C(O)=C2/C(=O)N(C)C3(C)CC2c2ccccc2O3)cc1 (centres undefined) | inconclusive: 18.4 µM [falling, single point]
Cc1c(P(=S)(c2ccccc2)c2ccccc2)[n+]2ccccc2n1CC(=O)c1ccccc1 | inactive
Cc1cccc(C(=O)N2CCCC(c3nc(-c4ccc(F)cc4)no3)C2)c1 (centres undefined) | inconclusive: 16.4 µM [falling, single point]
O=C(NCc1ccco1)C(c1ccncc1)N(C(=O)Cc1cccs1)c1ccccc1 (centres undefined) | inactive
CCCn1c(=O)c2c(C(=O)OCC)cc(-c3ccco3)nc2n(CCC)c1=O | inactive
O=C(NCc1ccccc1Cl)c1ccc2ccccc2n1 | inconclusive: 14.6 µM [activator, single point]
CSCc1nnc(NC(=O)c2ccc(S(=O)(=O)N3CCCCC3C)cc2)o1 (centres undefined) | active: 20.6 µM
Cn1cc(Cl)c(C(=O)Nc2nc3ccc(Cl)cc3s2)n1 | inconclusive: 6.51 µM [activator, full curve]
